These are yes or no findings as the source states them, for the method shown. Binding seen in cells or lysates may run through a third protein. A yes stands for co-enrichment or nearness to the bait. Other partners may have been found.

The chains behind the UniProt entries cited, without tags or fusion partners.
UniProt Q01860: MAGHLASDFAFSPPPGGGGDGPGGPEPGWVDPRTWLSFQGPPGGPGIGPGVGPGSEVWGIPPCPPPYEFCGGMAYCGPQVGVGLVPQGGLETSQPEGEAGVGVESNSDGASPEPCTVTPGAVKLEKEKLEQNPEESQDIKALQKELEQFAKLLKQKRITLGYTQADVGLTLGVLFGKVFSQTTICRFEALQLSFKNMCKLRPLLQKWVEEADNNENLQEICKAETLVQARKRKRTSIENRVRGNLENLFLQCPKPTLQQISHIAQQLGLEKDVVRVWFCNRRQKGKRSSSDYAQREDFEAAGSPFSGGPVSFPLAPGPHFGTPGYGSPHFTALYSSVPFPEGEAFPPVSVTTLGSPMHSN
UniProt P12004: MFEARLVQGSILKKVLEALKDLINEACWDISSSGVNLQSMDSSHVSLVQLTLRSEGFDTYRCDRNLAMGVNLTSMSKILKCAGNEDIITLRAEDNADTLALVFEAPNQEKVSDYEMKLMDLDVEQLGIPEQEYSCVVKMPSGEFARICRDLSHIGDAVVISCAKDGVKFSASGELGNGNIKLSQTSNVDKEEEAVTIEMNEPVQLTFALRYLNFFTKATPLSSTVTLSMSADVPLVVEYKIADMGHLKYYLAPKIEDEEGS
UniProt P08670: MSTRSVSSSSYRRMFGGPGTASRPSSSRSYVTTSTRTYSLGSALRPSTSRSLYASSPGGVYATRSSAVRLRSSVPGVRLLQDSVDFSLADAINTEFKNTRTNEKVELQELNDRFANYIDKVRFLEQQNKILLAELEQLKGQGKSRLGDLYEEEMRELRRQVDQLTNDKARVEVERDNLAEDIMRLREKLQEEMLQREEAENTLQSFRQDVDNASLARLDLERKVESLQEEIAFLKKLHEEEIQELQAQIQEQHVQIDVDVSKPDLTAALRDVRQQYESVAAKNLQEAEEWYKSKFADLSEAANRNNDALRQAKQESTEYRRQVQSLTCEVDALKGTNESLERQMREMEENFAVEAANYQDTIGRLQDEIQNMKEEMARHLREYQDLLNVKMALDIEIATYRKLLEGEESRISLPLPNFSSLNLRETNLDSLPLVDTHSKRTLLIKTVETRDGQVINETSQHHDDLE

For the assay, the target named is Octamer-binding transcription factor-4 (Oct4) (UniProt Q01860). Kind of assay: affinity purification with mass spectrometry.

For the substance PCNA (from UniProt P12004 1-261), the binding result is “binds”.
With Vimentin (from UniProt P08670 1-466) the entry was “binds”.
